Measurements reported in patent publication US6800727B2, “Peptides with increased + charge and hydrophobicity by substituting one or more amino acids of CA-MA peptide and pharmaceutical compositions containing thereof” (Chosun University, priority 2001, dated 2004).
Part of at least one peptide drawing is inferred or uncertain, most often the ends. Residues, ends and D or L forms follow the SMILES beside them.

System: Bacillus subtilis
Assay: Visualization of anti-bacterial activity, colonies on LB plate
Assay type: cell-based
Details: 4×10^5 B. subtilis cells, 1 μM peptide, 2 hours at 37° C.; FIG. 1
Procedure: In order to visualize the antibiotic activity of the synthetic peptide of the present invention on the plate, Pseudomonas aeruginosa and Bacillus subtilis were inoculated in LB medium (1% bacto trypton, 0.5% yeast extract, 1% sodium chloride), and cultured to mid-log phase. Particularly, 4×10^5 P. aeruginosa cells were loaded into the medium, and 4 μM of synthetic peptide was added thereto. 4×10^5 B. subtilis cells were also loaded into the medium, and 1 μM of synthetic peptide was added thereto. After culturing for 2 hours at 37° C., the culture fluid was smeared on LB plate to visualize the cells. At this time, CA-MA peptide was used as a comparative group.

## CC[C@H](C)[C@H](NC(=O)CNC(=O)[C@@H](NC(=O)[C@H](CCCCN)NC(=O)[C@H](CCCCN)NC(=O)[C@H](Cc1ccccc1)NC(=O)[C@H](CC(C)C)NC(=O)[C@H](CCCCN)NC(=O)[C@H](Cc1c[nH]c2ccccc12)NC(=O)[C@@H](N)CCCCN)[C@@H](C)CC)C(=O)NCC(=O)N[C@@H](CCCCN)C(=O)N[C@@H](Cc1ccccc1)C(=O)N[C@@H](CC(C)C)C(=O)N[C@@H](Cc1c[nH]cn1)C(=O)N[C@@H](CO)C(=O)N[C@@H](C)C(=O)N[C@@H](CCCCN)C(=O)N[C@@H](CCCCN)C(=O)N[C@@H](Cc1ccccc1)C(=O)O [CA-MA] (H-KWKLFKKIGIGKFLHSAKKF-OH)
  colonies on LB plate: colonies were found to be a little grown
